# Laboratory results as given in PubChem BioAssay AID2417 (National Center for Advancing Translational Sciences (NCATS), 2010).
# Where “and” joins values, the source holds several entries; their conditions need not be identical. Equal entries are not always repeated. Among all 140,000 compounds or so, about 4,300 (3.1%) were called active. Inconclusive results, whose numbers are uncertain, are shown with a selection of clear calls.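 The calls were made as follows: active = readout at or below -70, meaning at least 70% loss of cells showing the perinucleolar compartment, a nuclear body marking cancer cells; inconclusive = readout between -30 and a set limit; inactive = the rest.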
# Assay: High Content Assay for Compounds that inhibit the Assembly of the Perinucleolar Compartment;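 also: plate controls were DMSO wells for no effect and camptothecin positive control wells for full effect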
# Conditions: PC3M PTB-GFP, PNC prevalence imaging, 16 h; at 10 µM; stronger effect = lower value
# Summary of the method: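 PC3M cells stably expressing PTB-GFP, 750–1000 cells/well, treated 16 h at 37 °C with compound (23 nl of library stock), in duplicate. After paraformaldehyde fixation and Hoechst stain, imaged at 20x; PNC prevalence scored by image analysis.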
row,SMILES,"activity change (PNC), negative = inhibition"
1,CCOC(=O)c1c(C)oc(/N=C/c2ccccc2O)c1C#N,inconclusive: -39.8%
2,COCCn1c(C)cc(C2=NNC(=Nc3ccc(Cl)cc3Cl)SC2)c1C,inconclusive: -74.9%
3,CC(NC(=O)c1cc(-c2ccccc2)on1)c1ccccc1 (configuration not stated),active: -97.3%
4,NC(=O)[C@@H]1CCCNc2c(F)cc([N+](=O)[O-])cc2C(=O)N[C@@H](CO)C(=O)NCC(=O)N1,inconclusive: -32.2%
5,Cc1csc(-c2cnn(-c3ccccc3)c2NC(=O)c2ccc(C(F)(F)F)cc2)n1,inconclusive: -31.8%
6,CCNC(=O)NC(=O)C(C)SCc1ccccc1C (configuration not stated),inconclusive: -51.2%
7,COc1ccc(C(=O)Oc2coc(CSc3nnc(NC(=O)c4cccs4)s3)cc2=O)cc1,inconclusive: -42.9%
8,COc1ccccc1N1CCN(C(=O)c2ccoc2C)CC1,inconclusive: -38.3%
9,CC(C)N(C(=O)CSc1nnc(Cn2nnc3ccccc32)n1C)C(C)C,inactive: -26.8%
10,CCOC(=O)N/N=C/c1c(F)c(F)c(F)c(F)c1F,inactive: -1.38%
11,Cc1cc(C(=O)N2CCN(Cc3ccc4c(c3)OCO4)CC2)cs1,inactive: 6.51%
12,CCOC(=O)c1cc2c(=O)n3cccc(C)c3nc2n(Cc2ccco2)c1=NC(=O)c1cccnc1,inconclusive: -46%
13,CCn1cc(C(=O)N2CCN(C(=O)c3ccco3)CC2)c2cc(OC)c(OC)cc2c1=O,inconclusive: -65.3%
14,C=CCNC(=O)c1ccc(-c2ccc([N+](=O)[O-])cc2)o1,inconclusive: -78.8%
15,CCOc1cc(-c2conc2N)cc(OCC)c1OCC,inconclusive: -53.4%
16,C=CCSc1nc(-c2ccccc2)c(C#N)c(=O)[nH]1,inactive: 11.5%
17,COc1cccc(N2CCN(Cc3nc(N)nc(N4CCCc5ccccc54)n3)CC2)c1,inconclusive: -37.1%
18,CC(=O)c1cccc(NS(=O)(=O)c2ccc3c(c2)oc(=O)n3C)c1,inconclusive: -62%
19,Cc1ccc(NC(=O)/C(=C\c2ccccc2)NC(=O)/C=C/c2ccccc2)cc1,inconclusive: -42.3%

row,SMILES,"activity change (PNC), negative = inhibition"
1,O=C(O)C(Cc1cc2ccccc2[nH]1)N1C(=O)C2CC=C(Cl)CC2C1=O (configuration not stated),inconclusive: -55.8%
2,O=C(O)CCSCc1ccccc1F,inconclusive: -31.7%
3,CC(=O)C1C(=O)CC(C)(O)C(C(C)=O)C1c1ccc(N(C)C)cc1 (configuration not stated),inconclusive: -32.7%
4,NS(=O)(=O)c1ccc(NC(=O)CCc2ccccc2)cc1,inactive: -10.2%
5,O=C1/C(=C/c2cccs2)Sc2ccccc21,inconclusive: -59.9%
6,C[n+]1ccccc1/C=N/O,inactive: -16.7% and inactive: 25%
7,CCOc1ccc(N2C(=O)/C(=C/c3cccs3)N(CC(=O)OC)C2=S)cc1,inactive: 10.6%
8,COc1ccc(CN2CCCCC2C(=O)Nc2ccc(OC)c(OCC(C)C)c2)cc1OC (configuration not stated),inactive: 6.94%
9,c1ccn2cc(CSc3nnc4ccccn34)nc2c1,inconclusive: -35.2%
10,COc1ccc(C(=O)Nc2ccc(S(=O)(=O)Nc3nccnc3OC)cc2)cc1OC,inconclusive: -63.2%
11,Cc1c(Cl)cccc1N=c1c([N+](=O)[O-])nn(-c2ccccc2)n1O,inconclusive: -67.1%
12,Cc1ccc(CNC(=O)Nc2cccs2)cc1,inconclusive: -46%
13,Cc1cc([N+](=O)[O-])cc(C)c1OCC(=O)N/N=C/c1ccc(OC(=O)c2ccccc2Br)cc1,inactive: 61.8%
14,COc1cccc(-c2nnc(SCC(=O)N3CCCc4ccccc43)o2)c1,inconclusive: -67.3%
15,COC(=O)c1ccc(/C=N\NC(=O)c2ccc(C)cc2Cl)cc1,inactive: 62.4%
16,CCN1CCN(Cc2ccc(NC(=O)Nc3ccc(SC)cc3)cc2)CC1,inconclusive: -73.6%
17,CN(CC(=O)N1CCN(c2ccc(F)cc2)CC1)S(=O)(=O)c1ccc(F)cc1,inconclusive: -64.6%
18,Cc1cccc(Nc2ccccc2C(=O)O)c1C,inactive: 72.5%
19,Cc1ccc(NC(=O)c2nn(C34CC5CC(CC(C5)C3)C4)cc2[N+](=O)[O-])cc1,inactive: -5.04%

row,SMILES,"activity change (PNC), negative = inhibition"
1,CCCc1nnc(SCc2ccc(OC)cc2)n1N,inactive: 29.5%
2,COc1ccccc1-c1ccc(NC2CCCCC2)nn1,inactive: 108%
3,Cc1ccsc1C1C(C(=O)O)c2ccccc2C(=O)N1C (configuration not stated),inconclusive: -45.7%
4,CSc1nc(N(C)C)nc(N2CC(=O)N(CCNS(=O)(=O)c3ccc(C)cc3)C2=N)n1,inconclusive: -61.1%
5,CCOc1ccc(N2Nc3n[nH]c(N)c3N2)cc1,inconclusive: -68.3%
6,C=CCn1c(C)c(C(C)=O)c(SC)nc1=S,active: -84.4%
7,Cn1cccc1Cc1nnc(SCC(=O)Nc2cccc(F)c2)n1-c1ccc(F)cc1,inactive: -28.9%
8,CCOC(=O)C1=C(c2ccccc2)N=C2SCC(=O)N2C1c1ccc(OCC)c(OCC)c1 (configuration not stated),inconclusive: -42%
9,COc1cc(C2NCCC(=O)C2(C)C)cc(OC)c1OC (configuration not stated),inconclusive: -31.7%
10,CCOC(=O)C1CCCN(c2nc3ccccc3nc2C(C#N)C(=O)OCCOC)C1 (configuration not stated),inconclusive: -33.6%
11,CC(C)(C)NC(=O)CSc1nnnn1C(C)(C)C,inconclusive: -31.6%
12,Cc1cc(NS(=O)(=O)c2ccccc2)c(C)c(Cl)c1O,inconclusive: -55.1%
13,COc1cccc(CNS(=O)(=O)c2cccc(S(=O)(=O)N3CCOCC3)c2)c1,inconclusive: -70.5%
14,CSC1=N/C(=C\c2c(F)cccc2Cl)C(=O)S1,inactive: 59.4%
15,CC(c1ccccc1)N1C(=O)CC(Sc2ncccc2C(=O)O)C1=O (configuration not stated),inconclusive: -37.7%
16,O=C(c1ccccc1F)N1CCN(c2ccc([N+](=O)[O-])c3ncccc23)CC1,inconclusive: -70.5%
17,CCCNC(=O)COC(=O)c1ccccc1C(=O)N(C)C1CCCCC1,inconclusive: -30%
18,COc1ccc(C(=S)NCS(=O)(=O)c2ccc(C)cc2)cc1,inactive: -23.5%
19,O=C(NCc1ccc(F)cc1)C1C2C=CC3(CN(Cc4cccnc4)C(=O)C13)O2 (configuration not stated),inconclusive: -49.5%

# Of the compounds above, these contain a cyano group:
row,SMILES,"activity change (PNC), negative = inhibition"
1,CCOC(=O)c1c(C)oc(/N=C/c2ccccc2O)c1C#N,inconclusive: -39.8%
16,C=CCSc1nc(-c2ccccc2)c(C#N)c(=O)[nH]1,inactive: 11.5%
10,CCOC(=O)C1CCCN(c2nc3ccccc3nc2C(C#N)C(=O)OCCOC)C1 (configuration not stated),inconclusive: -33.6%
